In PMC5550846 one finds binding data, which are given here for three molecules.

Assay [1] has as its target T1, sphingosine kinase 2 (SPK2), HA-tagged, mouse (mouse) (UniProt Q9JIA7).
T1 sequence: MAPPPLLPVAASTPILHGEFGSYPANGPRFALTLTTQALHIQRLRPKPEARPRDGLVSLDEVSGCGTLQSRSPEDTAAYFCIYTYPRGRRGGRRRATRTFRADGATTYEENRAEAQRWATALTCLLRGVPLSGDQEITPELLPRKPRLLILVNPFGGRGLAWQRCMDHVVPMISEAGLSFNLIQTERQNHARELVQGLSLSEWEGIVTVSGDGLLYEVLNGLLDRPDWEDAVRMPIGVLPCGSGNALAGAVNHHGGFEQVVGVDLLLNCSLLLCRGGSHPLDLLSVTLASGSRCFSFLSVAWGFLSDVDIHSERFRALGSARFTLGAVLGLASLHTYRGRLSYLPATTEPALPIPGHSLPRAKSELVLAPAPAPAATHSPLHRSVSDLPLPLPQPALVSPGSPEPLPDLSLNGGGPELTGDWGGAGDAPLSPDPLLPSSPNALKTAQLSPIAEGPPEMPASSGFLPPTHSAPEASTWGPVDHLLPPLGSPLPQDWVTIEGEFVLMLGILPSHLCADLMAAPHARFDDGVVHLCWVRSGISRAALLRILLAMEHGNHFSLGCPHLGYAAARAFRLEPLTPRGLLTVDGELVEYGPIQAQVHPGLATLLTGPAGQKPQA
Nature of the assay: co-IP; lysates of stable LV-SPK2-HT22 cells; immunoprecipitated with anti-HA and blotted for Bcl-2, or immunoprecipitated with anti-Bcl-2 and blotted for HA; lysis buffer Tris-HCl 50 mM pH 7.4, NaCl 150 mM, 0.05% sodium deoxycholate, 1% NP40.

In assay [2] the target is Bcl-2 (endogenous, mouse neural cells) (mouse (endogenous in HT22 and primary cortical neurons)) (UniProt P10417). The assay is described as above.
Assay [3] deals with T2, Bcl-2 (endogenous, mouse neural cells) (mouse (endogenous in HT22 and primary cortical neurons)), P10417.
T2 chain: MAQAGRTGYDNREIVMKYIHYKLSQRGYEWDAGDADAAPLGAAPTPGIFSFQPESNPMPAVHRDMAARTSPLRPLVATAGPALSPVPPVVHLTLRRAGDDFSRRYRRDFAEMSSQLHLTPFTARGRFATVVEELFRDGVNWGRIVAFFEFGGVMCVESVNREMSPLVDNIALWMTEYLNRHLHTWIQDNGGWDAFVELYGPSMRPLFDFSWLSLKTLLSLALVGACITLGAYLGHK
Nature of the assay: co-IP; lysates of primary murine cortical neurons infected with LV-vector or LV-SPK2; immunoprecipitated with anti-Bcl-2 and protein G-agarose, blotted for Beclin-1; lysis buffer Tris-HCl 50 mM pH 7.4, NaCl 150 mM, 0.05% sodium deoxycholate, 1% NP40. As to conditions: remark: other sources report otherwise.

These are yes or no findings as the source states them, for the method shown. Binding seen in cells or lysates may run through a third protein. Some binding calls cover weakened binding; strength is not graded here. For part of these data: Where a sequence is shown, tags or fusion partners need not be part of it.

With “Bcl-2 (endogenous, mouse neural cells) (from UniProt P10417 1-236)”, the binding entry in assay [1] is on record as “binds”.

B1: sphingosine kinase 2 (SPK2), HA-tagged, mouse (enzyme, UniProt Q9JIA7 1-617)
chain: MAPPPLLPVAASTPILHGEFGSYPANGPRFALTLTTQALHIQRLRPKPEARPRDGLVSLDEVSGCGTLQSRSPEDTAAYFCIYTYPRGRRGGRRRATRTFRADGATTYEENRAEAQRWATALTCLLRGVPLSGDQEITPELLPRKPRLLILVNPFGGRGLAWQRCMDHVVPMISEAGLSFNLIQTERQNHARELVQGLSLSEWEGIVTVSGDGLLYEVLNGLLDRPDWEDAVRMPIGVLPCGSGNALAGAVNHHGGFEQVVGVDLLLNCSLLLCRGGSHPLDLLSVTLASGSRCFSFLSVAWGFLSDVDIHSERFRALGSARFTLGAVLGLASLHTYRGRLSYLPATTEPALPIPGHSLPRAKSELVLAPAPAPAATHSPLHRSVSDLPLPLPQPALVSPGSPEPLPDLSLNGGGPELTGDWGGAGDAPLSPDPLLPSSPNALKTAQLSPIAEGPPEMPASSGFLPPTHSAPEASTWGPVDHLLPPLGSPLPQDWVTIEGEFVLMLGILPSHLCADLMAAPHARFDDGVVHLCWVRSGISRAALLRILLAMEHGNHFSLGCPHLGYAAARAFRLEPLTPRGLLTVDGELVEYGPIQAQVHPGLATLLTGPAGQKPQA
Turning to B1, the binding result in assay [2] is on record as “binds”.

B2: Beclin-1 (endogenous, mouse cortical neurons), O88597 1-448 (protein)
chain: MEGSKASSSTMQVSFVCQRCSQPLKLDTSFKILDRVTIQELTAPLLTTAQAKPGETQEEEANSGEEPFIETRQDGVSRRFIPPARMMSTESANSFTLIGEASDGGTMENLSRRLKVTGDLFDIMSGQTDVDHPLCEECTDTLLDQLDTQLNVTENECQNYKRCLEILEQMNEDDSEQLQRELKELALEEERLIQELEDVEKNRKVVAENLEKVQAEAERLDQEEAQYQREYSEFKRQQLELDDELKSVENQVRYAQIQLDKLKKTNVFNATFHIWHSGQFGTINNFRLGRLPSVPVEWNEINAAWGQTVLLLHALANKMGLKFQRYRLVPYGNHSYLESLTDKSKELPLYCSGGLRFFWDNKFDHAMVAFLDCVQQFKEEVEKGETRFCLPYRMDVEKGKIEDTGGSGGSYSIKTQFNSEEQWTKALKFMLTNLKWGLAWVSSQFYNK
In the case of B2, the binding entry in assay [3] is recorded as “binds”.
